Test results from patent publication US10167299B2, “1-(3-aminopropyl) substituted cyclic amine compounds, preparation method therefor, and pharmaceutical compositions and uses thereof” (SHANGHAI INSTITUTE OF MATERIA MEDICA, CHINESE ACADEMY OF …, priority 2013, dated 2019).
At least one structure is not confirmed: it was looked up by name or label, or the drawing left a doubt. Some compounds share one wording; it may come from a single statement.

The chains behind the UniProt entries cited, without tags or fusion partners.
UniProt P51681, whole entry: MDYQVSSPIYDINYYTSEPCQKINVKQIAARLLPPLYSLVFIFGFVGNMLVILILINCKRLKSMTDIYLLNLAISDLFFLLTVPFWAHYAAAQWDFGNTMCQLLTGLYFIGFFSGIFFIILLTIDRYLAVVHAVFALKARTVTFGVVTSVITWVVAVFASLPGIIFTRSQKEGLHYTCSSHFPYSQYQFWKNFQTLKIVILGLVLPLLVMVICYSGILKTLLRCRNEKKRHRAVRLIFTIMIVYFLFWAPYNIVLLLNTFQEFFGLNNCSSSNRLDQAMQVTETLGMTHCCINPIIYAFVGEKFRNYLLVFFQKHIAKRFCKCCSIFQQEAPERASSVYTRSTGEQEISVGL

biological target: CCR5 (Homo sapiens (Human), UniProt P51681); test: Calcium flux inhibition experiment; type: cell-based; details: conclusion from Table 1
From the text: Experiment apparatus: FlexStation II
Experiment materials: HEK293/CCR5-Gα16 cell line, Fluo-4calcium dye (fluorescent-4 calcium ion dye) and FlexStation instrument.
Experiment theory: Activation of the receptor can cause the activation of Gα16 protein, thereby activating phospholipase C (PLC) to generate IP3 and DAG by establishing CCR5 and Ga16 co-transfected cell line. IP3 can bind to IP3 receptors on the endoplasmic reticulum and mitochondria in a cell, which can cause the release of intracellular calcium. Thus, determination of changes in intracellular calcium can be used as a method to detect CCR5 activation state. Fluo-4/AM is a fluorescent probe indicator for calcium used to measure calcium ion. As a non-polar lipid-soluble compound, after it enters into cells, AM group is dissociated to release Fluo-4 under the effect of cell lipolysis enzyme. Fluo-4 is a polar molecule and not easy to go through the lipid bilayer membrane, therefore it can stay within the cells for a long time. Ultimately, the level of activated Ga protein can be reflected by measuring the excited fluorescence intensity. If the screened compound can activate CCR5, it can greatly increase the calcium flux reaction; on the contrary, if the screened compound can antagonize CCR5, it can greatly reduce calcium flux reaction.
1. HEK293 cells which can stably express CCR5 were inoculated in a 96-well plate and incubated overnight.
2. The medium in each well into which cells were innoculated was removed and 40 μl/well of freshly prepared dye was added. The plate was placed in a 37° C. incubator and incubated for 40 minutes at constant temperature.
3. The medicament to be determined was diluted with calcium buffer to eight concentration gradients, which is 1×10^−4 M, 1×10^−5 M, 1×10^−6 M, 1×10^−7 M, 1×10^−8 M, 1×10^−9 M, 1×10^−10 M, and 1×10^−11 M, respectively, and homogeneously mixed.
4. The dye was removed. Freshly prepared calcium buffer was used to wash for one time, 50 μl of calcium buffer was added.
5. FlexStation II was used for detection. 25 μl of calcium buffer containing the medicament to be determined was added automatically from the 15th second.

| Compound | calcium influx inhibition effect in words, versus positive control compounds |
| --- | --- |
| CC(=O)Oc1ccc([C@H](CCN2C3CCC2CC(n2c(C)nnc2C(C)C)C3)NC(=O)C2CCCCC2)s1 (stereo partly drawn) [Compound 170, N-[(1S)-3-[exo-3-(3-isopropyl-5-methyl-4H-1,2,4-triazol-4-yl)-8-azabicyclo[3.2.1]octane-8-yl]-1-(5-acetoxythiophen-2-yl)propyl]cyclohexane-1-carboxamide] | better than the positive control compounds |
| Cc1nnc(C(C)C)n1C1CC2CCC(C1)N2CC[C@H](NC(=O)C1CCC(F)(F)CC1)c1csc2ccccc12 (stereo partly drawn) [Compound 27, 4,4-difluoro-N-[(1S)-3-[exo-3-(3-isopropyl-5-methyl-4H-1,2,4-triazol-4-yl)-8-azabicyclo[3.2.1]octane-8-yl]-1-(benzothiophen-3-yl)propyl]cyclohexane-1-carboxamide] | comparable to the positive control compounds |
| Cc1nnc(C(C)C)n1C1CC2CCC(C1)N2CC[C@H](NC(=O)CC#N)c1ccc(C#N)s1 (stereo partly drawn) [Compound 167, N-[(1S)-3-[exo-3-(3-isopropyl-5-methyl-4H-1,2,4-triazol-4-yl)-8-azabicyclo[3.2.1]octane-8-yl]-1-(5-cyanothiophen-2-yl)propyl]-2-cyanoacetamide] | comparable to the positive control compounds |
| Cc1nnc(C(C)C)n1C1CC2CCC(C1)N2CC[C@H](NC(=O)C1CCC(F)(F)CC1)c1ccc(F)s1 (stereo partly drawn) [Compound 37, 4,4-difluoro-N-[(1S)-3-[exo-3-(3-isopropyl-5-methyl-4H-1,2,4-triazol-4-yl)-8-azabicyclo[3.2.1]octane-8-yl]-1-(5-fluorothiophen-2-yl)propyl]cyclohexane-1-carboxamide] | comparable to the positive control compounds |
| CCc1ccc([C@H](CCN2C3CCC2CC(n2c(C)nnc2C(C)C)C3)NC(=O)C2CCC(F)(F)CC2)s1 (stereo partly drawn) [Compound 64, 4,4-difluoro-N-[(1S)-3-[exo-3-(3-isopropyl-5-methyl-4H-1,2,4-triazol-4-yl)-8-azabicyclo[3.2.1]octane-8-yl]-1-(5-ethylthiophen-2-yl)propyl]cyclohexane-1-carboxamide] | better than the positive control compounds |
| CC(=O)Nc1ccc([C@H](CCN2C3CCC2CC(n2c(C)nnc2C(C)C)C3)NC(=O)C2CCC(F)(F)CC2)s1 (stereo partly drawn) [Compound 137, 4,4-difluoro-N-[(1S)-3-[exo-3-(3-isopropyl-5-methyl-4H-1,2,4-triazol-4-yl)-8-azabicyclo[3.2.1]octane-8-yl]-1-(5-acetamidothiophen-2-yl)propyl]cyclohexane-1-carboxamide] | comparable to the positive control compounds |
| Cc1nnc(C(C)C)n1C1CC2CCC(C1)N2CC[C@H](NC(=O)C1CCCCC1)c1ccc(C(=O)N(C)C)s1 (stereo partly drawn) [Compound 171, 5-[(1S)-1-(cyclohexaneformamido)-3-[exo-3-(3-isopropyl-5-methyl-4H-1,2,4-triazol-4-yl)-8-azabicyclo[3.2.1]octane-8-yl]-propyl]-N,N-dimethylthiophene-2carboxamide] | better than the positive control compounds |
